Assay results: publication PMC10150531
No constants are given. Whether binding was seen depends on the method and setting. In cells and extracts the contact can be indirect. Some results given as binding are weak or reduced against the parent protein; the word gives no strength.

Chains of the proteins cited; added tags and fusions are not shown. Lines headed by an entry give the natural chain unless they say otherwise; changes in a name come on top. A line that says so, or that is headed by a name, gives the form on record, which may keep a tag or linker. Residues count along the entry.
UniProt P53396: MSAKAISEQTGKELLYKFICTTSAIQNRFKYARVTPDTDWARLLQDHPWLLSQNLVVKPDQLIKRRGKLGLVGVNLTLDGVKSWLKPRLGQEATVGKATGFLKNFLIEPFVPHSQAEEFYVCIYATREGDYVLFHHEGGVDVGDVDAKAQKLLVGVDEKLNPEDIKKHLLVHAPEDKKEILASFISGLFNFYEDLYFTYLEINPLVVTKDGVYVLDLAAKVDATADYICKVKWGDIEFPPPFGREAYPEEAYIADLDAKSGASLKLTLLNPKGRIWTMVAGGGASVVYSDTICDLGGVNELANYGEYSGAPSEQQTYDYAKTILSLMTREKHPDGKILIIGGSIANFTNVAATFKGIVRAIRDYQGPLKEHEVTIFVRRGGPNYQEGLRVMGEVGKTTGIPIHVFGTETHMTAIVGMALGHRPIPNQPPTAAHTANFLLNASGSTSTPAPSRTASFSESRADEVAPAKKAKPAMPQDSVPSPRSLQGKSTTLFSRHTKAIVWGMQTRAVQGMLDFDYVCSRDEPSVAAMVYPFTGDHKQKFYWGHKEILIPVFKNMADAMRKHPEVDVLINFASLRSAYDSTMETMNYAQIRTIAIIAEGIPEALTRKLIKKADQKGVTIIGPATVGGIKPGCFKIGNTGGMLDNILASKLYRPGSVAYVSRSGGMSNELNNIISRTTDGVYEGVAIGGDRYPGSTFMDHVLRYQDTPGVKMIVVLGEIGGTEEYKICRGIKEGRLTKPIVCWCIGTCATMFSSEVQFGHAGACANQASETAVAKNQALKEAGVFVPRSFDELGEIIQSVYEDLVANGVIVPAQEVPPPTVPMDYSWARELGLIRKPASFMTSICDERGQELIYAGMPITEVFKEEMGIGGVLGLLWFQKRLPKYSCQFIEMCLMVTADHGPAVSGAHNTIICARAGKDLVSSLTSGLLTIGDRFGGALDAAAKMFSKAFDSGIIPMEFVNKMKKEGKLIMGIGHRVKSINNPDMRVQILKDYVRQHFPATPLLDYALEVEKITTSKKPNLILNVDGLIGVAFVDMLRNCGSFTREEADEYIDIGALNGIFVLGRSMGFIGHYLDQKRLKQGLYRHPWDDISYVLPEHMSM
Flag-tagged ACLY mutant A3 (amino acids 621-820, CoA-ligase domain): residues 621-820 of P53396
UniProt Q9UGP8: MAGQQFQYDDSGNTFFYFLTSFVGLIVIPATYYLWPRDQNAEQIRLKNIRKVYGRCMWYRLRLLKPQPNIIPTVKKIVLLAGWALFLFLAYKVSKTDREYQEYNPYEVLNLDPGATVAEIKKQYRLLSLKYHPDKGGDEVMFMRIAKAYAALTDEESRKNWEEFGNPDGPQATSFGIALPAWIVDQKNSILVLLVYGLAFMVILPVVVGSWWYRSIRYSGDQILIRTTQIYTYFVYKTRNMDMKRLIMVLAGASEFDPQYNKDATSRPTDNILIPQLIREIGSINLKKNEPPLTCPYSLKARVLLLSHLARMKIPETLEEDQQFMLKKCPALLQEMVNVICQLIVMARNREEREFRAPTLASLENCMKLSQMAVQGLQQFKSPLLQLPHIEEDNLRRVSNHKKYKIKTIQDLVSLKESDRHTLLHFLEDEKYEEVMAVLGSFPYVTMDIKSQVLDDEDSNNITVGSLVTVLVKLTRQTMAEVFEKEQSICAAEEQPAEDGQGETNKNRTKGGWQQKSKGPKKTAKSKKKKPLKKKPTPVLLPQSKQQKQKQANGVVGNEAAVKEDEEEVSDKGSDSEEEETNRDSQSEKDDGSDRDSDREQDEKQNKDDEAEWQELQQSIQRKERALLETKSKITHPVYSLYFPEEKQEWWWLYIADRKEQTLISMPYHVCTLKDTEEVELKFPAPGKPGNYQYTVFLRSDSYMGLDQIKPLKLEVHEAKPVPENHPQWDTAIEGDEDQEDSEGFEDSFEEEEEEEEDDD
UniProt O75460, residues 19-977: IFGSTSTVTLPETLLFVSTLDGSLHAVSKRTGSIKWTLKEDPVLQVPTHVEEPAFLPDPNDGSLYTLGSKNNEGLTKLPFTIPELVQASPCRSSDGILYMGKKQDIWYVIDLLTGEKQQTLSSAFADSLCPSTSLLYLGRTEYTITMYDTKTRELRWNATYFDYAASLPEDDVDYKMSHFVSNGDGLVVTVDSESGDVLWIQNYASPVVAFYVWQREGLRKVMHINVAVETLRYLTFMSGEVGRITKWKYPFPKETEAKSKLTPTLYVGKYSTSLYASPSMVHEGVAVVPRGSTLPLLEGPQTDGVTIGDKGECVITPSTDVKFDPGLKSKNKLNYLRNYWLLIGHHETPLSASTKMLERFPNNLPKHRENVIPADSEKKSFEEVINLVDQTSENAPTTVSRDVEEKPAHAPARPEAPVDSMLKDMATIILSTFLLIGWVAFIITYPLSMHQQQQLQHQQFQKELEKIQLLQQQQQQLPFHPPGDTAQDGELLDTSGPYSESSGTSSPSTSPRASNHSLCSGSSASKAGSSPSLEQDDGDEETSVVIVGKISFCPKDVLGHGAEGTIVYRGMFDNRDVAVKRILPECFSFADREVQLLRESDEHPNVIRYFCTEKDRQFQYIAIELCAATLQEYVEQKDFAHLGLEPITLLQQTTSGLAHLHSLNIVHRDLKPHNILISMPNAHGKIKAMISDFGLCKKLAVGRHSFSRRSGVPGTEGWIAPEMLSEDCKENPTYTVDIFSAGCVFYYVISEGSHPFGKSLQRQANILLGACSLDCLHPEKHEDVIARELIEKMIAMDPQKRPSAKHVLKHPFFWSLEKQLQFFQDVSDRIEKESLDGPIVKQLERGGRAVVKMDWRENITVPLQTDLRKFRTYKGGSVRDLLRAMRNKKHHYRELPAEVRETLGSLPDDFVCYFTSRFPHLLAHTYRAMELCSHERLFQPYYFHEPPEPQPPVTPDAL
UniProt P84022: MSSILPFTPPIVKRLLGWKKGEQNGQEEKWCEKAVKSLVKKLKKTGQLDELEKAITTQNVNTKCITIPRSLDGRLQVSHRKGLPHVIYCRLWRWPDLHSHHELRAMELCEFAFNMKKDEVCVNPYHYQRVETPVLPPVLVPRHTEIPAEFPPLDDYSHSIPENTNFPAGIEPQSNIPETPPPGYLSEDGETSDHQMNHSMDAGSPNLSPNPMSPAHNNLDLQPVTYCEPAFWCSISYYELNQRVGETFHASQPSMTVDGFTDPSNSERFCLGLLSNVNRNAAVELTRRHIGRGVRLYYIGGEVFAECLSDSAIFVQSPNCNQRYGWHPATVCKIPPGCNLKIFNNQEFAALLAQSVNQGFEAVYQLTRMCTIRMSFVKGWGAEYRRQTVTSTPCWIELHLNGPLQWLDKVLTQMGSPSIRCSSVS

Columns and labels:
[1] = target: Adenosine triphosphate (ATP)-citrate lyase (ACLY) (human (endogenous in Huh7)) (UniProt P53396); experiment: co-IP; Huh7 cells transfected as indicated (Flag-SEC63, T537A, T537E); co-immunoprecipitation with the indicated antibody
[2] = target: SEC63 (human (endogenous in Huh7)) (UniProt Q9UGP8); experiment: co-IP; endogenous proteins; Huh7 cell lysates in Buffer A (25 mM Tris-Cl pH 7.5, 150 mM KCl, 1 mM DTT, 2 mM EDTA, 0.5 mM PMSF, 0.2% Nonidet P-40); antibodies coupled to protein A-Sepharose beads, 2 h at 4 °C; western blot; untreated cells and cells treated with TM (5 μg/mL) or TG (1 μM) for 8 h
[3] = target: Flag-tagged ACLY mutant A3 (amino acids 621-820, CoA-ligase domain) (UniProt P53396); experiment: co-IP; Huh7 cells transfected with Flag-tagged ACLY or SEC63 deletion mutants and treated with MG132; Co-IP with anti-Flag antibodies
[4] = target: Adenosine triphosphate (ATP)-citrate lyase (ACLY) (human (endogenous in Huh7)) (UniProt P53396); experiment: co-IP; endogenous proteins; Huh7 cell lysates in Buffer A (25 mM Tris-Cl pH 7.5, 150 mM KCl, 1 mM DTT, 2 mM EDTA, 0.5 mM PMSF, 0.2% Nonidet P-40); antibodies coupled to protein A-Sepharose beads, 2 h at 4 °C; western blot; untreated cells and cells treated with TM (5 μg/mL) or TG (1 μM) for 8 h
[5] = target: Adenosine triphosphate (ATP)-citrate lyase (ACLY) (human (endogenous in Huh7)) (UniProt P53396); experiment: co-IP; Huh7 cells transfected with indicated plasmids (Flag-SEC63), or control and SEC63-depleted cells treated with ER stress drugs; Co-IP with anti-ACLY antibody

Molecule: Flag-tagged SEC63 (from UniProt Q9UGP8 1-760)
- binding [1]: binds

Molecule: Flag-tagged SEC63 T537A (from UniProt Q9UGP8 1-760)
- binding [1]: binds

Molecule: Flag-tagged SEC63 T537E (from UniProt Q9UGP8 1-760)
- binding [1]: binds

Molecule: Inositol-requiring enzyme 1α (IRE1α) (from UniProt O75460 19-977)
- binding [2]: binds

Molecule: SEC63 (from UniProt Q9UGP8 1-760)
- binding [3]: binds
- binding [4]: binds

Molecule: SMAD3 (from UniProt P84022 1-425)
- binding [2]: binds

B1: KLHL25 (Kelch-like family member 25) (protein, UniProt Q9H0H3 1-589)
chain: MSVSVHETRKSRSSTGSMNVTLFHKASHPDCVLAHLNTLRKHCMFTDVTLWAGDRAFPCHRAVLAASSRYFEAMFSHGLRESRDDTVNFQDNLHPEVLELLLDFAYSSRIAINEENAESLLEAGDMLQFHDVRDAAAEFLEKNLFPSNCLGMMLLSDAHQCRRLYEFSWRMCLVHFETVRQSEDFNSLSKDTLLDLISSDELETEDERVVFEAILQWVKHDLEPRKVHLPELLRSVRLALLPSDCLQEAVSSEALLMADERTKLIMDEALRCKTRILQNDGVVTSPCARPRKAGHTLLILGGQTFMCDKIYQVDHKAKEIIPKADLPSPRKEFSASAIGCKVYVTGGRGSENGVSKDVWVYDTVHEEWSKAAPMLIARFGHGSAELENCLYVVGGHTSLAGVFPASPSVSLKQVEKYDPGANKWMMVAPLRDGVSNAAVVSAKLKLFVFGGTSIHRDMVSKVQCYDPSENRWTIKAECPQPWRYTAAAVLGSQIFIMGGDTEFTAASAYRFDCETNQWTRIGDMTAKRMSCHALASGNKLYVVGGYFGTQRCKTLDCYDPTSDTWNCITTVPYSLIPTAFVSTWKHLPA
- binding [5]: binds
